# Laboratory results as given in patent US9371290B2, “Pyridazinone compounds” (BIOTIE THERAPIES CORPORATION, priority 2011, dated 2016).
# At least one compound was matched to its structure with a doubt left.
# Assays:
# Total MAO = assay: Total rat MAO activity (rat liver mitochondrial preparation, tyramine substrate); assay type: biochemical
# Method: Rat MAO was prepared from rat liver by rinsing the 1 g liver sample several times in 14 ml KCl-EDTA-solution to remove all blood. Then 1 g liver sample was homogenized in 4 ml ice-cold potassium phosphate buffer (0.1 M, pH 7.4) with an Ultra-Turrax homogenizer (setting 11 000 rpm, 4×10 s). After centrifugation at 500 g for 10 min at 4° C. the supernatant was carefully withdrawn and was centrifuged at 12 300 g for 15 min at 4° C. The supernatant was discharged and sedimented mitochondria were resuspended in 4 ml fresh phosphate buffer and centrifuged as previously. The mitochondria were suspended in 4 ml phosphate buffer and homogenized with an Ultra-Turrax homogenizer (setting 11 000 rpm, 2×10 s). Mitochondrial preparate was aliquoted and stored at −70° C. Total MAO activity was measured in a similar way as for VAP-1 SSAO except that SSAO enzyme was replaced by MAO enzyme. To each well was added a predetermined amount of inhibitor if required. The amount of inhibitor varied in each assay but was generally at a final concentration of between 10 nM and 800 μM. Controls lacked inhibitor. The inhibitor was in a total volume of 20 μl in water. The following reagents were then added. 0.2 M potassium phosphate buffer pH 7.6 for a total reaction volume of 200 μl, 50 μl of freshly made chromogenic solution (as above) and 50 μl of MAO preparation (or needed amount of MAO). The plates were incubated for 30 min at 37° C. and the background absorbance measured at 490 nm using a Wallac Victor II multilabel counter. To initiate the enzyme reaction 20 μl of 5 mM tyramine (final concentration 0.5 mM) was added and the plate incubated for 1 h at 37° C. The increase in absorbance, reflecting MAO activity, was measured at 490 nm. Inhibition was presented as percent inhibition compared to control after correcting for background absorbance and IC50 values calculated using GraphPad Prism. Clorgyline and pargyline (inhibitors of MAO-A and -B respectively) at 0.5 μM were added to some wells as positive controls for MAO inhibition.
# hAOC3 ApoE3*Leiden mice = assay: Cuff-induced neointimal thickening in femoral artery; assay type: in vivo, mouse; conditions: 2 weeks after cuff placement, vs NaCl 0.9% treated control group
smiles,measurement,setting,value
NCCCNc1cc(=O)n(-c2ccc(Cl)cc2)nc1-c1nc[nH]n1 [Compound 78],Total MAO Inhibitory activity (%),Total MAO; at 50 μM,3%
CN1CCN(c2ccc(Nc3cc(=O)n(-c4ccc(Cl)cc4)cc3-c3nc[nH]n3)cc2)CC1 [Compound 81],Total MAO Inhibitory activity (%),Total MAO; at 50 μM,5%
CN1CCN(c2ccc(Nc3cc(=O)n(-c4ccc(Cl)cc4)nc3-c3nc[nH]n3)cc2)CC1 [Compound 63],Total MAO Inhibitory activity (%),Total MAO; at 50 μM,5%
O=c1cc(NCCN2CCOCC2)c(-c2nc[nH]n2)nn1-c1ccccc1 [Compound 39],Total MAO Inhibitory activity (%),Total MAO; at 100 μM,8%
CN(C)CCNc1cc(=O)n(-c2ccccc2)nc1-c1nc[nH]n1 [Compound 13],Total MAO Inhibitory activity (%),Total MAO; at 100 μM,0%
CN1CCC(Nc2cc(=O)n(-c3ccc(Cl)cc3)nc2-c2nc[nH]n2)CC1 [Compound 68],Total MAO Inhibitory activity (%),Total MAO; at 250 μM,6%
C[C@@H]1C[C@H]2[C@@H]3CCC4=CC(=O)C=C[C@]4(C)[C@@]3(F)[C@@H](O)C[C@]2(C)[C@@]1(O)C(=O)CO [dexamethasone],media and neointima formation,hAOC3 ApoE3*Leiden mice,significant reduction
